PubChem BioAssay AID686937 | Drosophila RNAi Screening Center – 2013
Purpose: 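Knock-downs that reduce output of a secreted reporter enzyme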 (primary screen). System: Drosophila S2 cells expressing secreted horseradish peroxidase. Reagents: long dsRNA against Drosophila genes. Timing: about 5.5 days (5 days dsRNA, then 12 h reporter induction). Conditions: reporter expression induced after 5 days of dsRNA, read 12 h later; inducer not stated. Measurement: 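Chemiluminescent measurement of peroxidase in the medium 12 h after reporter induction, following 5 days of dsRNA, given as a z-score per plate; higher means more secretion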. Scale: z-score: higher = more reporter secreted into medium.
In all, the deposit lists about 23,000 reagents; this is an unselected part of those that have a named target and a result. 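Reduced-secretion tags in replicate 1 do not always agree with the z-scores; no criterion for assigning the tags was given.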 A plus sign joins genes that one reagent is predicted to hit. Not given: the amount of reagent.

gene knocked down	dsRNA	z-score, replicate 1	z-score, replicate 2	z-score, replicate 3	z-score, replicate 4	phenotype, replicate 1
SF2 (GeneID 53443)	DRSC16845	0.46	0.71			
CG34166 (GeneID 5740596)	DRSC02482	0.64	0.6	0.26	-0.06	
Mks1 (GeneID 32200)	DRSC19697	0.12	0.12			
odd (GeneID 33583)	DRSC00832	-0.52	-0.5			
CG42792 (GeneID 10178946)	DRSC01515	0.11	-0.08			
PPO3 (GeneID 44513)	DRSC04325	0.3	0.45			
CG14370 (GeneID 41659)	DRSC14832	0.35	-0.07			
CG33178 (GeneID 318913)	DRSC19950	0.12	0.43			
Ddrgk1 (GeneID 42516)	DRSC15897	0.34	0.18			
CG32191 (GeneID 317903)	DRSC10522	0.1	0.13			
tapas (GeneID 37304)	DRSC05950	0.3	0.38			
aqz (GeneID 41058)	DRSC16570	-1.86	-1.77			reduced secretion
CG17841 (GeneID 31965)	DRSC17737	0.66	0.52			
Dis3l2 (GeneID 38034)	DRSC08496	0.34	0.13			
Pld (GeneID 35554)	DRSC04854	0.15	-0.01			
Diedel2 (GeneID 12798297)	DRSC13952	0.22	-0.23			
Cpr67Fb (GeneID 39225)	DRSC10314	0.29	0.35			
kra (GeneID 40680)	DRSC12320	0.13	-0.06			
CG7924 (GeneID 39574)	DRSC10931	0.41	0.32			
Su(var)2-10 (GeneID 35927)	DRSC07721	0.45	0.29			
BBS1 (GeneID 38780)	DRSC10196	0.71	0.64			
TrissinR (GeneID 33812)	DRSC02334	0.09	0.07			
TrissinR (GeneID 33812)	DRSC02335	0.32	0.3			
TrissinR (GeneID 33812)	DRSC02336	0.29	-0.19			
rdgB (GeneID 32340)	DRSC20365	0.37	0.22			
CG34283 (GeneID 5740817)	DRSC13313	0.46	0.34			
kermit (GeneID 46027)	DRSC06074	0.41	0.23			
CG5555 (GeneID 42302)	DRSC15834	0.29	0.49			
sra (GeneID 47384)	DRSC17015	0.41	0.49			
brwl (GeneID 34275)	DRSC01080	-1.83	0			reduced secretion
brwl (GeneID 34275)	DRSC02729	0.07	0.16			
Zwilch (GeneID 59247)	DRSC15376	0.31	0.32			
CG10384 (GeneID 37567)	DRSC03933	0.17	0.11			
CG10384 (GeneID 37567)	DRSC04067	-0.86	-0.51			
CG13284 (GeneID 35021)	DRSC02256	0.62	0.3			
Sin1 (GeneID 36604)	DRSC05965	0.35	0.37			
pxb (GeneID 41899)	DRSC13110	-0.83	-0.27			
pxb (GeneID 41899)	DRSC14996	0.05	0.26	-0.22	0.29	
pxb (GeneID 41899)	DRSC14997	0.01	0.67			
pxb (GeneID 41899)	DRSC22225	0.06	0.05			
Dp (GeneID 36461)	DRSC07402	-0.87	-1.1			
Mur29B (GeneID 319014)	DRSC01018	0.66	0.07			
Mur29B (GeneID 319014)	DRSC02376	0.29	0.39			
CG1631 (GeneID 33029)	DRSC20535	0.36	0.24			
CG15728 (GeneID 32214)	DRSC19694	0.47	0.58			
CG15728 (GeneID 32214)	DRSC22868	0.56	0.75			
Gr5a (GeneID 44873)	DRSC18085	0.29	-0.03			
CG14420 (GeneID 31284)	DRSC17917	0.5	0.5			
lncRNA:CR43302 (GeneID 12798065)	DRSC12668	0.42	0.47			
CG34193 (GeneID 5740572)	DRSC05665	0.35	0.51			
Gale (GeneID 38076)	DRSC08234	0.14	-0.13			
Rala (GeneID 31332)	DRSC18703	0.28	0			
CG13460 (GeneID 39638)	DRSC10007	0.03	0.02			
CG32856 (GeneID 318251)	DRSC13124	0.64	0.26			
Ptpa (GeneID 33555)	DRSC00776	0.22	0.37			
CG12209 (GeneID 36077)	DRSC06119	0.01	0.2			
Eig71Ej (GeneID 39711)	DRSC11157	0.28	0.35			
CG10597 (GeneID 32714)	DRSC19357	0.52	-0.15	-0.81	0.53	
CG31468 (GeneID 251937)	DRSC13637	0.65	0.35			
Sce (GeneID 43327)	DRSC16825	0.09	-0.17			
CG5810 (GeneID 42513)	DRSC15880	0.03	0.23			
CG5810 (GeneID 42513)	DRSC21921	-0.18	-5.44			reduced secretion
Dscam1 (GeneID 35652)	DRSC05047	-0.07				
Dscam1 (GeneID 35652)	DRSC05048	-1.08				
Dscam1 (GeneID 35652)	DRSC07407	0.18	0.33			
Dscam1 (GeneID 35652)	DRSC21562	-0.03	-0.5			
Dscam1 (GeneID 35652)	DRSC22383	0.19	0.41			
CG30026 (GeneID 246399)	DRSC05276	0.99	0.47			
GlcAT-I (GeneID 251900)	DRSC17307	0.08	0.36			
CG12134 (GeneID 36038)	DRSC06109	0.47	0.22			
CG10598 (GeneID 32713)	DRSC19358	-0.24	-0.96			
CG32075 (GeneID 326192)	DRSC10622	0.15	0.28			
CG14455 (GeneID 40480)	DRSC11712	0.33	0.05			
CG3335 (GeneID 39119)	DRSC10358	-0.15	0.15			
drn + CG43675	DRSC15147	0.21	-1.64			
Spf30 (GeneID 7354399)	DRSC11976	-0.75	-0.57			
atms (GeneID 40593)	DRSC12310	-1.33	-1.64			
CG5693 (GeneID 50463)	DRSC02878	0.19	0.14			
Tengl4 (GeneID 41321)	DRSC15620	0.16	0.39			
MED15 (GeneID 33223)	DRSC00267	-3.6	-3.55			reduced secretion
Lk (GeneID 47746)	DRSC10022	0.46	0.25			
Gas8 (GeneID 31321)	DRSC22884	0.66	0.33			
